Conditions: PAMPA
Source text: Thus, to reduce attrition in the development process, the evaluation of BBB penetration at a very early drug discovery stage is of crucial importance. In light of this, the ability of the previously selected compounds to cross the BBB was predicted by a parallel artificial membrane permeability assay (PAMPA)-BBB,[41] a high-throughput technique widely used as an indicator of a molecule’s passive diffusion through the BBB. Six commercially available drugs were used to validate the assay.
PAMPA (the parallel artificial membrane permeability assay) is a high-throughput screening tool applicable for the prediction of the passive transport of potential drugs across the BBB.[41] […] The concentrations of the tested compound in both donor and the acceptor wells were assessed after 3, 4, 5, and 6 h of incubation in quadruplicate using a UV plate reader, Synergy HT (Biotek) at the maximum absorption wavelength of each compound (n=3). In addition to that, solution of the theoretical compound concentration, simulating the equilibrium state established if the membrane were ideally permeable, was prepared and assessed as well. The concentrations of the compounds in the donor and acceptor wells and the equilibrium concentration were calculated from the standard curve and expressed as the permeability (Pe) according to the equation[41] […]

## COc1cc2c(cc1OC)C(=O)C(CC1CCN(Cc3ccccc3)CC1)C2 (stereo not shown) [Donepezil, reference compound]
  CNS (+/-): CNS + (key: CNS + (high BBB permeation predicted): Pe (×10-6 cm s-1) > 4.0; CNS - (low BBB permeation predicted): Pe (×10-6 cm s-1) < 2.0; CNS +/- (uncertain BBB permeation): Pe (×10-6 cm s-1) from 4.0 to 2.0)

From PMC9732823, “Discovery of Dual Aβ/Tau Inhibitors and Evaluation of Their Therapeutic Effect on a Drosophila Model of Alzheimer’s Disease” (ACS Chemical Neuroscience, 2022)
